The assay concerns the target survivin (human (endogenous in Caki)) (UniProt O15392). As to the kind of experiment: co-IP; endogenous proteins from Caki cells; CHAPS lysis buffer, primary antibody (anti-survivin or anti-c-FLIP) overnight, protein G agarose beads 2 h; detected by Western blotting. For orientation: In western blotting, separated proteins are transferred to a membrane and probed.

By UniProt entry, the sequences of proteins in these tests, tags left out.
UniProt O15392: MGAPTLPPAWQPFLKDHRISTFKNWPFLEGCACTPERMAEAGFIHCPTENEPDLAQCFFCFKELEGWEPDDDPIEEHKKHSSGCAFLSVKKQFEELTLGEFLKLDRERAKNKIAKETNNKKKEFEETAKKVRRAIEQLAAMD

No constants are given. Whether binding was seen depends on the method and setting. In cells and extracts the contact can be indirect. Some binding calls cover weakened binding; strength is not graded here.

B1: STAM-binding protein-like 1 (enzyme, UniProt Q96FJ0 1-436)
chain: MDQPFTVNSLKKLAAMPDHTDVSLSPEERVRALSKLGCNITISEDITPRRYFRSGVEMERMASVYLEEGNLENAFVLYNKFITLFVEKLPNHRDYQQCAVPEKQDIMKKLKEIAFPRTDELKNDLLKKYNVEYQEYLQSKNKYKAEILKKLEHQRLIEAERKRIAQMRQQQLESEQFLFFEDQLKKQELARGQMRSQQTSGLSEQIDGSALSCFSTHQNNSLLNVFADQPNKSDATNYASHSPPVNRALTPAATLSAVQNLVVEGLRCVVLPEDLCHKFLQLAESNTVRGIETCGILCGKLTHNEFTITHVIVPKQSAGPDYCDMENVEELFNVQDQHDLLTLGWIHTHPTQTAFLSSVDLHTHCSYQLMLPEAIAIVCSPKHKDTGIFRLTNAGMLEVSACKKKGFHPHTKEPRLFSICKHVLVKDIKIIVLDLR
With B1, the binding result is reported as “binds”.
